{"source": "patent US10076481B2", "about": "“Compositions for treating periodontitis and dental calculus accumulation” (The Research Foundation for the State University of New York, priority 2016, dated 2018)", "system": "human salivary sediment", "assay": "pH response of salivary sediment incubated with individual amino acids, with or without 28 mM urea", "assay_type": "cell-based", "conditions": "37° C.", "description": "To obtain human salivary sediment for performance of the experiments described herein, paraffin wax (4.02 g) was chewed by human subjects (including some subjects 70+ years of age, where oral alkalinity is commonly more prevalent) to stimulate the flow of saliva. Prior to the experiment, the subjects fasted for 12 hours and abstained from oral hygiene for at least 24 hours (to enable spontaneous dental plaque bacterial growth and buildup on their teeth and other oral surfaces (Kleinberg. I., 1967, Arch. Oral Biol., 1457-1473)). As a result of this process, oral bacteria were dislodged by the inert paraffin wax from the teeth and oral soft tissue surfaces in the mouths of the human subjects. About 40 ml of whole saliva was then collected from each subject by expectoration into a 50 ml polypropylene centrifuge tube chilled by surrounding it with cracked ice (Korayem, M. R., Traudt, M., and Kleinberg, I., 1990; Sandham, H. J. and Kleinberg, I., 1973).\nThe saliva collected was centrifuged at 1740 g in an International Equipment Company clinical centrifuge (Needham Heights, Mass.) for 15 min. at 4° C. The supernatant was decanted and discarded. To wash the remaining bacterial sediment, 40 ml of ice-cold distilled water was added and mixed in a vortex mixer. The resulting sediment-water mixture was centrifuged at 1740 g for 15 min. at 4° C. The supernatant was again decanted and discarded. This bacterial sediment washing procedure was repeated twice. To the washed bacterial sediment, 10 ml of deionized water was added and the composition was then mixed briefly and thoroughly in a vortex mixer. The sediment was transferred to a 15 ml polypropylene centrifuge tube. The resulting suspension was centrifuged at 1740 g for 15 min. at 4° C. and the resulting supernatant was aspirated and discarded.\nTo the packed 1.0 ml of salivary sediment obtained after centrifugation, 1.0 ml of deionized water was added to make a 50% salivary sediment suspension for the preparation of the following standard incubation mixtures: salivary sediment at 16.7% (v/v), with and without added individual amino acids: serine, glycine, alanine, valine, and/or histidine, etc. at either a 90 or 120 mM concentration; and leucine, isoleucine, aspartic acid, glutamine, cysteine, cystine, lysine, arginine, tyrosine, phenylalanine, threonine, proline, methionine, tyrosine, glutamine, and/or asparagine, each at 9 mM. These mixtures were each prepared in the presence or absence of 28 mM urea, which has a relatively high pH.\nThe initial pH of the incubation mixtures was carefully adjusted to or near 7.0 with either 1.0 M NaOH or 1.0 M HCl. Each bacterial mixture was then incubated overnight in a water bath at 37° C. The pH of each mixture was then determined using a combined pH and reference electrode (Radiometer Analytical SAS, Villeurbanne, France) at pre-determined time intervals.", "key": {"[1]": {"conditions": "90 or 120 mM amino acid, without urea, 4 hours"}, "[2]": {"conditions": "90 or 120 mM amino acid, without urea, 21 hours"}}, "note": "At least one read-out could not be matched to a standard name with certainty."}
{"smiles": "CC(C)[C@H](N)C(=O)O", "note": "[valine]", "values": [{"measurement": "pH of salivary sediment", "setting": "[1]", "value": "6.3-6.5"}, {"measurement": "pH of salivary sediment", "setting": "[2]", "value": "6.4-6.7"}]}
{"smiles": "C[C@H](N)C(=O)O", "note": "[alanine]", "values": [{"measurement": "pH of salivary sediment", "setting": "[1]", "value": 6.30}, {"measurement": "pH of salivary sediment", "setting": "[2]", "value": "~6.4"}]}
{"smiles": "N[C@@H](CO)C(=O)O", "note": "[serine]", "values": [{"measurement": "pH of salivary sediment", "setting": "90 or 120 mM amino acid + 28 mM urea, 21 hours", "value": 7.85}, {"measurement": "pH of salivary sediment", "setting": "[1]", "value": "about 6.0"}, {"measurement": "pH of salivary sediment", "setting": "[2]", "value": "6.6-6.8"}]}
{"smiles": "N[C@@H](Cc1c[nH]cn1)C(=O)O", "note": "[histidine]", "values": [{"measurement": "pH of salivary sediment", "setting": "90 or 120 mM amino acid + 28 mM urea, 4 hours", "value": 8.30}, {"measurement": "pH of salivary sediment", "setting": "[1]", "value": "6.92-7.00"}, {"measurement": "pH of salivary sediment", "setting": "[2]", "value": 7.20}]}
